The values below are quoted from earlier work in publication PMC11674187, “Inhibitory Effects of Cenobamate on Multiple Human Cardiac Ion Channels and Possible Arrhythmogenic Consequences” (Biomolecules, 2024).

Amino acid sequences for entries named in this document (tags omitted).
UniProt Q14524, whole entry: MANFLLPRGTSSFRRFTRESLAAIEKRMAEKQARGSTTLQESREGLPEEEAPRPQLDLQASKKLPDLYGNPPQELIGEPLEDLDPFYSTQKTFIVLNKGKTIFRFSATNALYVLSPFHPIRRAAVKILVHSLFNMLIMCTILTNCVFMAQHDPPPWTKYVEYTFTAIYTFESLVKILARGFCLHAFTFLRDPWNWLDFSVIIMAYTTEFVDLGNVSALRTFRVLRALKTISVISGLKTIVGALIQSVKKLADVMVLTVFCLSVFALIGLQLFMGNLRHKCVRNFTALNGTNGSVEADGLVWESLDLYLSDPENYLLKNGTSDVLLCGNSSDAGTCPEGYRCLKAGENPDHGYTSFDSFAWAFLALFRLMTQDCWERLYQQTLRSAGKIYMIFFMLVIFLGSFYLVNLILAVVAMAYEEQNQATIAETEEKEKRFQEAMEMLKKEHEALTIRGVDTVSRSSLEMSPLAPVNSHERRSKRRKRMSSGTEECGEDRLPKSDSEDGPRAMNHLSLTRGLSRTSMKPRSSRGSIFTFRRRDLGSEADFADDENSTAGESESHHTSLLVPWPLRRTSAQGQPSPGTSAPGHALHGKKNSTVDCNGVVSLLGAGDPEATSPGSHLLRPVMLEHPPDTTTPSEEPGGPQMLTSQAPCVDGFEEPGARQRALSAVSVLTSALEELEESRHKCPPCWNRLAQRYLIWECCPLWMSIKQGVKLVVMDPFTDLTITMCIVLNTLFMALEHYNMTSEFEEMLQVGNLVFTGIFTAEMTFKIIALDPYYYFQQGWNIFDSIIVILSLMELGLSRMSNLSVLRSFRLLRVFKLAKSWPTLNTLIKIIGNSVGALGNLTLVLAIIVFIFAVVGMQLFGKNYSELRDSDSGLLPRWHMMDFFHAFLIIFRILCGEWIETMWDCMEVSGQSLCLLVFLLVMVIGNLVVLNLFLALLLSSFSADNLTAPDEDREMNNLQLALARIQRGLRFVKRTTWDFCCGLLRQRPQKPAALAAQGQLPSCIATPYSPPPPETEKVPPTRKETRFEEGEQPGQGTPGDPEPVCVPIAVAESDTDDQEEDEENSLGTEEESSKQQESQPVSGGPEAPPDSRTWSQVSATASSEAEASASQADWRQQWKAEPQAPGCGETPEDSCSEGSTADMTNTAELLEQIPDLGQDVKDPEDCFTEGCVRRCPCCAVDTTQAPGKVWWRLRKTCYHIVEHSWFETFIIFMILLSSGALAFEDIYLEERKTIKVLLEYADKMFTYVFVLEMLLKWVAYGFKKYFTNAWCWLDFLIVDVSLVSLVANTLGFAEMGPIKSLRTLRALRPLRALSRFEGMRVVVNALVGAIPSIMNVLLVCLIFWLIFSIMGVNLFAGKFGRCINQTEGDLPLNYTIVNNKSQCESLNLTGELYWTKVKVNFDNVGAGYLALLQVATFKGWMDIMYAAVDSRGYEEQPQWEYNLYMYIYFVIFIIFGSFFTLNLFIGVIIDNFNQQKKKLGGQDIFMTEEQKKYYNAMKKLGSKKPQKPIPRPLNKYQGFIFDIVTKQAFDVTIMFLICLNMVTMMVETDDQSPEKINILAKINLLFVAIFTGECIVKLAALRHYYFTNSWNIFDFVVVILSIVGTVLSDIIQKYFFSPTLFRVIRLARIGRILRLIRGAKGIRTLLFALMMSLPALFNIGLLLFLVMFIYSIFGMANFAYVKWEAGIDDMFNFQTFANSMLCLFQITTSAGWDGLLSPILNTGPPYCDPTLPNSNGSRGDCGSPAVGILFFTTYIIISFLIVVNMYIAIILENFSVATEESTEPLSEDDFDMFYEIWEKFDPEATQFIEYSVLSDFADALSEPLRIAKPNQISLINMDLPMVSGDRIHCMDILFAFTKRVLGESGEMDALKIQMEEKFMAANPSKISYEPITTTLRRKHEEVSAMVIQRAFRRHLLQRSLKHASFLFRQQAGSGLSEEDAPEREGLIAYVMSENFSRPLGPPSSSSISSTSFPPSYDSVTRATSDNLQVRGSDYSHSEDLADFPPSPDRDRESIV

The target in this series is Nav1.5 (Homo sapiens, UniProt Q14524). The settings on record: lidocaine-Nav1.5; ref [17] Cardona K et al., 2010; cited from earlier work.

In the case of `CCN(CC)CC(=O)Nc1c(C)cccc1C` [lidocaine], the kib was 4.9984e+06 M⁻¹ s⁻¹, the “kib^−1” value is given as 0.0384 ms^−1, the kob is 5.173e+06 M⁻¹ s⁻¹ and the “kob^−1” value was 0.0128 ms^−1.
